This is an account of results in PubChem BioAssay AID2685 (National Center for Advancing Translational Sciences (NCATS), 2010).

Some of the results follow. These are further read-outs of the screen, such as a control signal, another cell line or another target. No call is given for them. The list favours compounds with an active or inconclusive main result. Words in brackets tell the shape of the fitted curve; partial curves, single points and poor fits give uncertain potencies.

The nature of this assay: qHTS Assay for Lipid Storage Modulators in Drosophila S3 Cells.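 As to cell number change: cells counted by Cell Tracker Red CMTPX staining in the red channel.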 Conditions: BODIPY lipid droplet fluorescence, 18-24 h; for cell number change: measured here: cell count max response, cells fed with added oleic acid. The method in brief:
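Drosophila S3 cells got compounds at several concentrations plus oleic acid (400 uM solution). Laser-scanning cytometry with 488 nm excitation read lipid droplets at 500-530 nm and cells at 575-640 nm. Percent activity was relative to 20 uM Triacsin C.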
In general terms: qHTS replaces the single test concentration by a dilution series.

Where [1] appears, read: measured here: lipid fluorescence (Fed channel) AC50, cells fed with added oleic acid.
[2] abbreviates: measured here: cell number channel AC50, cells fed with added oleic acid.

On to `COc1cc(Cl)c(S(=O)(=O)NCCCN2CCOCC2)cc1Cl`, for which the cell number change stood at 14.5%. Besides, under setting [1], the AC50 is 4.11 µM [falling, single point].

In the case of `COc1ccccc1N1CCN(C2CCN(C(=O)c3cccc(F)c3)CC2)CC1`, the cell number change worked out at 53.5%. Moreover, the AC50 under setting [2] was 14.6 µM [rising, single point]. Besides, the AC50 under setting [1] was 16.4 µM [rising, partial curve, poor fit].

As to `COc1ccc(-c2nn(-c3ccccc3)cc2/C=N/NC(=O)c2ccc(Br)o2)cc1`, the cell number change is -56.9%. The AC50 under setting [2] is 9.2 µM [falling, partial curve]. Further, the concentration at half-maximal activity (AC50) under setting [1] is 4.11 µM [falling, partial curve].

With `COc1cc(C(=O)N/N=c2/sc3ccccc3n2C)cc(OC)c1OC`, the cell number change is 12%. Also, the AC50 under setting [1] is 29.1 µM [rising, single point].

In the case of `CN1CCN(c2nc(-c3ccc(C(C)(C)C)cc3)nc3ccccc23)CC1`, the cell number change was -62.3%. Besides, the AC50 under setting [2] is 18.4 µM [falling, partial curve]. Also, the AC50 under setting [1] is 18.4 µM [falling, single point].

Regarding `Cc1cccc(NC(=O)c2cccc(Cn3cc(Br)c([N+](=O)[O-])n3)c2)c1C`, the cell number change was found to be 56.5%. Under setting [2], the AC50 was 7.31 µM [rising, partial curve, poor fit]. The half-maximal activity concentration (AC50) under setting [1] was 23.1 µM [rising, partial curve].

In the case of `O=c1cc(-c2ccccc2Cl)oc2c(Br)ccc(O)c12`, the cell number change came out at 8.5%. In addition, the AC50 under setting [1] was 9.2 µM [rising, partial curve].

For `CCOC(=O)c1nc(Nc2ccc(C(=O)OC)cc2)c2ccccc2n1`, the cell number change was -35.1%. Under setting [1], the concentration at half-maximal activity (AC50) is 23.1 µM [falling, partial curve].

As for `Cn1c(N)c(C(=O)COC(=O)CC2CC3CCC2C3)c(=O)n(C)c1=O` (stereo unspecified), the AC50 under setting [2] was 0.731 µM [falling, single point] and the AC50 under setting [1] was 0.731 µM [falling, single point].

Regarding `Cc1c(O)ccc2c(=O)c(-c3nncn3-c3ccccc3)coc12`, the cell number change came to 12.4%.

Consider `O=c1[nH]c(CSc2ccccn2)nc2c1cnn2-c1ccccc1`, for which the cell number change came out at 11.8%. Further, the AC50 under setting [1] is 6.51 µM [rising, single point].

Regarding `O=c1[nH]c(CN2CCc3ccccc32)nc2scc(-c3cccs3)c12`, the cell number change was -10.5%. In addition, the AC50 under setting [1] was 4.11 µM [rising, full curve, poor fit].

As for `C=C(C)CSc1nnc(CCNC(=O)OC(C)(C)C)o1`, the cell number change was 5.97%. In addition, the AC50 under setting [1] is 6.51 µM [rising, partial curve].

`CCOc1cc(-c2c(C#N)c(N)nc3c2CCc2ccccc2-3)ccc1O`: the cell number change is -34.7%. The AC50 under setting [2] was 29.1 µM [falling, single point]. Also, under setting [1], the AC50 was 23.1 µM [falling, single point].

For the compound `Nc1nc(Oc2ccc(F)cc2)c(Br)c(=O)[nH]1`, the cell number change came to 13.2%. In addition, under setting [1], the AC50 was 3.66 µM [rising, single point].

With `COC(=O)c1ccc(CC(=O)c2ccc(O)cc2O)o1`, the cell number change is 21%. Besides, the AC50 under setting [1] is 29.1 µM [rising, single point].

Take `CC(C)CC(=O)NCCc1ccncc1`: the cell number change was -79.5%. In addition, under setting [2], the AC50 was 18.4 µM [falling, partial curve, poor fit].

Turning to `C=CCn1c(SCCN2C(=O)c3ccccc3C2=O)nc2scc(-c3ccccc3)c2c1=O`, the cell number change turned out to be 15.4%. Moreover, the AC50 under setting [1] was 6.51 µM [falling, single point].

On to `Cc1ccc(NC(=S)NCc2cccs2)c(C)c1`, for which the AC50 by setting is: under setting [2], 0.731 µM [rising, single point]; under setting [1], 6.51 µM [rising, single point].

As for `Cc1cc(-c2n[nH]c(=S)n2-c2ccc(F)cc2)nn1C`, the cell number change was -22.1%. In addition, under setting [1], the AC50 was 0.00461 µM [falling, full curve, poor fit].

As to `O=C(COC(=O)c1ccc(F)cc1)NC1CC1`, the cell number change is -0.0705%. Further, under setting [1], the concentration at half-maximal activity (AC50) is 1.64 µM [rising, single point].

Regarding `COc1ccc2c(c1)nc1n2CN(CC2CCCO2)CN1Cc1ccccc1` (stereo unspecified), the cell number change was determined as 22.5%. Moreover, the half-maximal activity concentration (AC50) under setting [1] was 16.4 µM [rising, single point].

For `CCOC(=O)c1nnc(-c2ccccc2)nc1Oc1ccccc1Cl`, the cell number change is 19.2%. Further, the AC50 under setting [1] is 29.1 µM [falling, single point].

For the compound `CC(=O)N1CCOc2ccc(S(=O)(=O)NCC3CCC(C(=O)Nc4ncccc4C)CC3)cc21` (stereo unspecified), the cell number change was -24.5%. Further, the AC50 under setting [1] is 29.1 µM [rising, single point].

For `CC(=O)N1c2ccc(S(=O)(=O)N3CCC(C(=O)Nc4ccccn4)CC3)cc2CC1C` (stereo unspecified), the cell number change worked out at 27.8%.

Turning to `Cc1ccc2nc(C)cc(N/N=C/c3ccccc3O)c2c1`, the cell number change is -30.3%. In addition, the AC50 under setting [2] is 29.1 µM [falling, single point]. For the same compound, the AC50 under setting [1] was 29.1 µM [falling, single point].

For the compound `CCCCCOc1ccc(NC(=O)CCCC(=O)O)cc1`, the cell number change was -7.68%. Also, the AC50 under setting [2] was 1.3 µM [falling, partial curve]. Moreover, the AC50 under setting [1] was 1.46 µM [falling, partial curve].

Consider `Cc1cc(C)cc(OCC(=O)Nc2ccccc2C(=O)N2CCOCC2)c1`, for which the cell number change was -14.1%. Also, under setting [1], the AC50 was 29.1 µM [falling, single point].

`COc1cc(/C=C(/C#N)c2nc3ccccc3[nH]2)ccc1OCc1ccc(C(=O)O)o1`: the cell number change was 3.33%. In addition, the concentration at half-maximal activity (AC50) under setting [1] is 4.11 µM [rising, full curve, poor fit].

For the compound `COc1ccc(C(=O)Nc2ccc(S(=O)(=O)Nc3cc(C)nc(C)n3)cc2)c(OC)c1`, the cell number change is -15.7%. Under setting [1], the AC50 is 20.6 µM [rising, single point].

For the compound `CCCCNCCCOc1cccc(Cl)c1`, the cell number change was -8.67%. For the same compound, the AC50 under setting [1] is 25.9 µM [falling, partial curve].

Regarding `CCCn1c(SCC(=O)NNC(=O)c2ccc(OC)cc2)nnc1C(C)C`, the cell number change was 19.2%. Under setting [1], the AC50 was 1.16 µM [rising, single point].

As for `O=C(N/N=C/c1ccc(-c2ccc(Br)cc2)o1)c1ccc2c(c1)OCO2`, the cell number change was determined as 19.5%. Also, under setting [2], the AC50 was 1.84 µM [rising, partial curve, poor fit].

With `CC(Cc1cccs1)NC(=S)Nc1ccc(Cl)cc1` (stereo unspecified), the half-maximal activity concentration (AC50) under setting [1] was 29.1 µM [falling, single point].

On to `O=C(Cn1nc(Cl)nc1Cl)c1cc2ccccc2oc1=O`, for which the cell number change was -27.5%. In addition, the AC50 under setting [1] was 16.4 µM [rising, single point].

Take `O=C(c1ccccc1)N1CCCC(c2nc3c(nnn3Cc3ccccc3)c(=O)[nH]2)C1` (stereo unspecified): the half-maximal activity concentration (AC50) under setting [1] was 29.1 µM [rising, single point].

Turning to `Cc1ccc(S(=O)(=O)N(C)c2ccc(C(=O)NCCc3ccccc3)cc2)cc1`, under setting [1], the half-maximal activity concentration (AC50) is 29.1 µM [falling, single point].

As to `CCOC(=O)CCCNC(=O)CSc1nnc(-c2ccccc2)c(-c2ccccc2)n1`, the cell number change turned out to be 9.91%.

On to `CC1c2c([nH]c3ccccc23)CCC1C(=O)O` (stereo unspecified), for which the cell number change is -52.7%. For the same compound, the half-maximal activity concentration (AC50) under setting [2] was 29.1 µM [falling, single point]. The AC50 under setting [1] was 0.58 µM [falling, full curve, poor fit].

Turning to `COc1ccc(-c2nnn(CCc3nn[nH]n3)n2)cc1OC`, the cell number change was -57.6%. Besides, under setting [2], the concentration at half-maximal activity (AC50) was 29.1 µM [falling, single point].

Regarding `CCOC(=O)N1CCC(NC(=O)Cn2cccc2C(=O)c2ccccc2)CC1`, the cell number change is -45.9%. Besides, the half-maximal activity concentration (AC50) under setting [2] was 20.6 µM [falling, single point].

For the compound `COc1cc(OC)c(NC(=O)C2CCN(S(=O)(=O)c3ccc4c(c3)CC(C)N4C(C)=O)CC2)cc1Cl` (stereo unspecified), the cell number change was 21.8%.

For `Cc1ccc(N(C(=O)c2csnn2)C(C(=O)NC2CCCCC2)c2cccnc2)cc1` (stereo unspecified), the cell number change is -14.3%. For the same compound, the AC50 under setting [1] was 4.11 µM [rising, partial curve].

With `CCOc1ccc(Oc2c(/C=N/NC(N)=O)c(C)nn2-c2ccccc2)cc1`, under setting [1], the AC50 was 5.8 µM [rising, partial curve].

Turning to `Cc1ccccc1NC(=S)NCc1cccn1C`, the cell number change was -24.1%. Besides, under setting [2], the concentration at half-maximal activity (AC50) is 0.184 µM [falling, full curve, poor fit].

For `CCOC(=O)C(=CNc1ccccc1C)C(=O)OCC`, under setting [2], the AC50 was 6.51 µM [rising, single point].

With `CCCCCCSc1ccc([C@@H]2[C@H]3C(=O)N(CC)C(=O)[C@H]3[C@]3(C(=O)OC)CCCN23)cc1`, the concentration at half-maximal activity (AC50) under setting [1] is 2.31 µM [falling, single point].

Consider `O=C(CCN1C(=O)/C(=C\c2cccs2)SC1=S)Nc1ccc(C(=O)O)cc1`, for which the cell number change came to 22.7%.

For `COc1ccc(O)c(C(=O)c2cnc3onc(C(C)C)c3c2)c1`, the cell number change was -10.3%. Also, under setting [1], the AC50 is 0.058 µM [falling, partial curve, poor fit].

On to `O=C(NC1CCCc2ccccc21)c1ccc(S(=O)(=O)N2CCOCC2)cc1` (stereo unspecified), for which the cell number change was determined as 10%. Moreover, the AC50 under setting [2] is 0.116 µM [falling, full curve, poor fit]. Moreover, the concentration at half-maximal activity (AC50) under setting [1] was 0.58 µM [falling, full curve].

On to `COC(=O)c1ccc(NC(=S)N2CCN(C)CC2)cc1`, for which the cell number change was -9%. Further, under setting [2], the half-maximal activity concentration (AC50) was 0.731 µM [falling, partial curve].

With `CNC(=O)c1c(NC(=O)c2ccc(S(=O)(=O)N3CCCCC3C)cc2)sc2c1CCN(C)C2` (stereo unspecified), the cell number change came out at 7.5%. Under setting [2], the AC50 is 1.84 µM [falling, partial curve]. The AC50 under setting [1] was 2.31 µM [falling, partial curve].

Turning to `CCOc1cc(/C=C2/C(=N)N3C(=NC2=O)SN=C3S(C)(=O)=O)ccc1OC(=O)c1ccco1`, under setting [1], the AC50 is 6.51 µM [falling, single point].

`COc1ccc(N2Cc3cccc(C(=O)N4CCOCC4)c3C2=O)cc1`: the cell number change was -7.72%.

As for `CC(C)c1cc(C(=O)Nc2cccc(Cl)c2)no1`, the cell number change is -4.46%. Besides, the half-maximal activity concentration (AC50) under setting [1] was 6.51 µM [rising, partial curve].

As for `CCOC(=O)c1[nH]c(C)c(C(=O)Nc2cc(OC)ccc2OC)c1C`, the cell number change turned out to be 99.8%. Besides, the AC50 under setting [2] was 18.4 µM [rising, single point]. The half-maximal activity concentration (AC50) under setting [1] was 18.4 µM [rising, single point].

Regarding `CCC(C)NS(=O)(=O)c1ccc(OCC(=O)NCc2ccco2)cc1` (stereo unspecified), the cell number change was -12.4%. In addition, the half-maximal activity concentration (AC50) under setting [1] is 14.6 µM [rising, partial curve].

For the compound `COC(=O)c1ccc(N/C=C/C(=O)c2ccccc2)cc1`, the cell number change turned out to be 11.4%. For the same compound, under setting [1], the AC50 is 4.11 µM [rising, single point].

Regarding `O=[N+]([O-])c1cc(/C=N/O)ccc1SCc1ccccc1`, the cell number change stood at 6.82%. Besides, the AC50 under setting [1] was 29.1 µM [rising, single point].

In general, AC50 refers to the midpoint of the concentration-response curve, whichever way the signal moves.
